This is one part of the list.
B1: il10ra_site1_normal_mot_8756ee2cf497b5429c717dfc0c0bcfd6_0001_000000186_0001_1_13_H_._HHH_b1_07326_af2_0001_0000300022_0000001_1_af2pred_0001 (protein)
chain: SSSSSSDLVELLRRIIKLLADGNPEEAEELVEEAKELAKELNDEVARAILEFLEKQINSSSSSSS
B2: il10ra_site1_sap_29_mot_HHH_b1_00356_000000295_0001_1_15_H_._HHH_b1_07975_0001_0000600040_0000001_0_0001 (protein)
chain: DIEEVLEEAARKRDPELAKEALRLIEEEAGDPREVIKILAELVREAFRNNDKALLHALWHVVHLL
B3: il10ra_site1_normal_mot_HHH_b2_08186_000000021_0001_43_56_H_._HHH_b2_03507_af2_0001_0000100001_0000001_1 (protein)
chain: SSSSDEEEEELRELIEELEELLKRGDREEVSRLAQRALRLAFRLRDPEALQRIWKILRKVSSSSS
B4: il10ra_site1_normal_mot_HHH_b1_02397_af2_000000085_0001_39_57_H_._HHH_b2_06748_af2_0001_0000100005_0000002_0 (protein)
chain: SSSSDEEELSREVQEELERLAEEGDREEFARLLQEALRLAFRLSDPELLRALWELAKRAASSSSS
B5: il10ra_site1_normal_mot_HHH_b1_06816_000000239_0001_1_19_H_._HHH_b2_02034_0001_0000800035_0000001_0_af2pred_0001 (protein)
chain: SSSSSSDLEEEAEELLEQVEKIDNPEERTRVARKALELAIEAGDPELAREIARAAAKLSSSSSSS
B6: il10ra_site1_sap_15_mot_HHH_b1_08279_000000069_0001_43_57_H_._HHH_b2_03796_0001_0000300034_0000002_0_0001 (protein)
chain: SSSSSDEEYEERVEELLEEAKQIPDPRERNEVLLEAVQLAIQGQDPELLREVWRVLEELNSSSSS
B7: il10ra_site1_sap_18_mot_HHH_b1_00103_000000293_0001_1_15_H_._HHH_b2_02954_0001_0000200007_0000002_0_0001_af2pred_0001 (protein)
chain: SSSSSELEERALKLFLRIAELLRNGDPEEAEKLLEELREVVEEIGDPRLELALRALELAASSSSS
B8: il10ra_site1_sap_28_mot_HHH_b1_05185_000000011_0001_22_39_H_._HHH_b1_05552_af2_0001_0000400023_0000001_0_0001_af2pred_0001 (protein)
chain: SSSSDEFEELEEEAEELVKRGDEEELAEVIALLLKLANRLNDKEAAHRVLRLAIELARLLSSSSS
B9: il10ra_site1_sap_32_mot_HHH_b2_03434_000000017_0001_1_19_H_._HHH_b1_05522_af2_0001_0000100003_0000001_0_0001_af2pred_0001 (protein)
chain: SSSSSDTEREAAHVFLRAAEALQEGDEEEAKELLRQLEEIAEEGNSELAKRSVRFLRAMLSSSSS
B10: il10ra_site1_normal_mot_HHH_b2_00622_af2_000000153_0001_40_57_H_._HHH_b1_02970_af2_0001_0000300024_0000001_0_af2pred_0001 (protein)
chain: SSSSDRDEKLLRRQIRAAERALELGNPERAKLALRFALFNARATGDPLAEEIEELIEEIGSSSSS
B11: il10ra_site1_normal_mot_HHH_b2_00441_000000147_0001_1_18_H_._HHH_b2_02085_0001_0000200018_0000001_0 (protein)
chain: SSSSDESIRRAIRILLEVAKRIEDEEYVKLSLRFAEALAKANNDDELERLVEEVEQEIEESSSSS
B12: il10ra_site1_sap_15_mot_d910f416147260c93593610934442136_0001_000000186_0001_34_49_H_._HHH_b2_05165_af2_0001_0000400004_0000002_0_0001 (protein)
chain: SSSSEAEEVYKAIRRVLELREEGNEEEAEELLEKLIEKLEELGNRTLVVNARFLLKVLRRLSSSS
B13: il10ra_site1_sap_13_mot_HHH_b1_05084_000000041_0001_41_57_H_._HHH_b2_00953_0001_0000200008_0000001_0_0001 (protein)
chain: SSSSSSQELYELIRKAIELMAEGNPEEAKEVVEEAERIAEEENNRVLLWLLEWLLKRLSSSSSSS
B14: il10ra_site1_normal_mot_HHH_b2_03220_af2_000000223_0001_23_40_H_._HHH_b1_07482_0001_0000500046_0000001_0 (protein)
chain: SSSSSEEAEEVWELLRRALEIREKDPEEARELVERAEEIAEENNNLNALFAIRFLLRDINSSSSS
B15: il10ra_site1_normal_mot_HHH_b1_06914_000000280_0001_1_18_H_._HHH_b2_02171_0001_0000100008_0000001_0 (protein)
chain: SSSSTELAEEVYKASREALELLSEGNPEEAEKLLEEILREAEELGNEFLALILRAVLEALKSSSS
B16: il10ra_site1_sap_21_mot_HHH_b1_07369_af2_000000079_0001_1_18_H_._c1e259e16b19a3635eeea4582300f2e1_0001_0001_0000200011_0000001_0_0001 (protein)
chain: SSSSDVEELLEEAREATEEGDEEAVSELSLKAVHHAIQRQDPELLREVWRVNKELGERLKSSSSS
B17: il10ra_site1_normal_mot_HHH_b1_07380_000000129_0001_1_20_H_._HHH_b1_05236_0001_0000100001_0000002_0 (protein)
chain: SSSSSEEVYRLSREAAELLAEGNPEEAEKVLEEARQLAEEEGNRVLLFNVRHLLRDIEEERSSSS
B18: il10ra_site1_sap_18_mot_HHH_b2_07488_000000216_0001_1_17_H_._HHH_b1_00600_af2_0001_0000500021_0000002_0_0001 (protein)
chain: SSSSDWEEMLEWMAHSLELAEELNDPKYIRNAARFLLRAAEQNNDEEIFERAERILKEVNSSSSS
B19: il10ra_site1_normal_mot_HHH_b1_01879_000000050_0001_1_18_H_._HHH_b1_03808_0002_0000400012_0000001_0_af2pred_0001 (protein)
chain: SSSSDDEVEELLQILAQLSARNPEFAEELFEVLVEVYRLLANGNPEEARRLAEEAIERVEKSSSS
B20: il10ra_site1_normal_mot_HHH_b2_00108_000000012_0001_38_56_H_._HHH_b2_04021_0001_0000700049_0000001_0 (protein)
chain: SSSSTEEIASRFHEELLRELLKAGDEEQLEATLEAAKALAEQLNDEELEEEVEEILRELKSSSSS
B21: il10ra_site1_normal_mot_HHH_b2_06979_000000158_0001_42_57_H_._HHH_b1_02740_0001_0000100006_0000001_0 (protein)
chain: SSSSNESSQLVREAARRARQLFEEGNPEEARRLLEEALEELEELGNELAVLNIRFLLRDLSSSSS
B22: il10ra_site1_normal_mot_HHH_b2_04050_000000291_0001_1_20_H_._HHH_b2_03360_0001_0000200021_0000002_0 (protein)
chain: SSSSSEEQRLIELSLELARALIRGDEEEARELVEEAKELAEELGNEEALRVLEDLEQVLKSSSSS
B23: il10ra_site1_sap_20_mot_HHH_b2_00564_af2_000000012_0001_18_34_H_._HHH_b2_07578_af2_0001_0000100001_0000001_1_0001 (protein)
chain: SDLSHEFFRLSKEALERAAHLSPEQRQAVARAIMEALRLAFNAKSEEEVEEVLELLEKVVKEVIS
B24: il10ra_site1_normal_mot_HHH_b2_03220_af2_000000223_0001_23_40_H_._HHH_b2_01401_af2_0001_0000100009_0000001_0 (protein)
chain: SSSSSEEAEEIWEIIREALELLAQGDKEEAKQLLEEALELAEELGSRVLRHVIEFALRQVSSSSS
B25: il10ra_site1_normal_mot_HHH_b2_02053_af2_000000006_0001_3_19_H_._HHH_b1_05925_0001_0000100008_0000001_0 (protein)
chain: SSSSDTEELYELLRRALELRAQGNPEEAEELLEEALRLARELGSELFVFVIEHLLRLLEGSSSSS
B26: il10ra_site1_sap_24_mot_HHH_b2_06857_af2_000000179_0001_42_54_H_._HHH_b1_04179_af2_0001_0000200006_0000001_1_0001 (protein)
chain: SSSSSDATRELYRLSKEAAELLAEGNPEEAQRVAEEAFELAEEAGNRVLLHAIEHLLRDISSSSS
B27: il10ra_site1_normal_mot_HHH_b1_02397_af2_000000085_0001_39_57_H_._HHH_b2_07534_0001_0000600062_0000001_1 (protein)
chain: SSSSDEEEEELRRLLEEVEELLRRGDPERAAEVTQRLLRFIFRLRDEEALHELHELVARHKSSSS
B28: il10ra_site1_normal_mot_HHH_b2_06864_af2_000000190_0001_1_20_H_._HHH_b1_07149_0001_0000300031_0000001_0 (protein)
chain: SSSSSDAQELFRLAREAAEELKKLSEEEAEELVQEILRILERHGDELTARALRFFVRLVNSSSSS
B29: il10ra_site1_sap_21_mot_823161b9c8d27cd62067cdb724e47ff0_0001_000000061_0001_17_32_H_._71fa3b3ce36e4cc21c7110f2bf27d1ce_0001_0001_0000100005_0000001_0_0001 (protein)
chain: SSSSAEEEFERVARAVEEASEAWERGDPEEAREIIEEALELAREANDEITVRALEHFLKALSSSS
B30: il10ra_site1_sap_16_mot_HHH_b1_04514_000000156_0001_1_18_H_._HHH_b2_08139_af2_0001_0000600025_0000001_0_0001 (protein)
chain: SSSSDLEQRALRLAQEAFEAALRGNPEEAEEILEEAEEIAERAGSERLLRMIESLLRAVRSSSSS
B31: il10ra_site1_normal_mot_ems_3hM_3349_af2_000000150_0001_25_42_H_._fc02e248b26fd4a305a7b86d1b4b774b_0001_af2_0001_0000200007_0000002_0 (protein)
chain: SEEEEELARLLKEGDPRAEEEIEELIAELLGVPPELARLALEQQEEQNGDPEEAVKAALASARAV
B32: il10ra_site1_sap_17_mot_HHH_b1_00456_000000263_0001_1_17_H_._cd286a6fd732cb1c2c19163a91e0928f_0001_1_0001_0000400004_0000001_0_0001_af2pred_dldesign_0_af2pred (protein)
chain: SSSSSAAEELLTAASQEMLRLRKAGDAASAAALTAAATAELTALGDADAVRQLQILQDYLLSSSS
B33: il10ra_site1_normal_mot_HHH_b1_02809_af2_000000277_0001_40_57_H_._HHH_b2_07682_0001_0000300022_0000001_0_af2pred_0001 (protein)
chain: SSSSSRDEEAVRRALRLAKWLREAGDEEAVRKYLKAAKILAKRIGDPELEELVERVEEHLSSSSS
B34: il10ra_site1_sap_21_mot_HHH_b1_03314_af2_000000278_0001_42_55_H_._HHH_b1_03442_0001_0000200019_0000001_0_0001 (protein)
chain: SSSSDERFEIAEKAIEEAIELWEQGNEEEARELIEEALEELRKAGDWAAVKALEHLLRVLSSSSS
B35: il10ra_site1_sap_19_mot_HHH_b2_07488_000000216_0001_1_17_H_._HHH_b1_03958_af2_0001_0000500023_0000001_0_0001 (protein)
chain: SSSSSDIAEIAQEAIHLAILLGDEETLQEIWELIHLYAEKGDPEIEEALEELLEELKERGSSSSS
B36: il10ra_site1_normal_mot_HHH_b1_05021_af2_000000076_0001_42_56_H_._HHH_b1_04652_0001_0000200016_0000001_0_af2pred_0001 (protein)
chain: SSSSDDEEVLKEVKELMEEALRIEDPEERRKVLEEAEELAEENGDELLLWQIRYLAKLLNSSSSS
B37: il10ra_site1_normal_mot_HHH_b1_08629_000000017_0001_1_20_H_._HHH_b2_08380_0001_0000100010_0000001_0 (protein)
chain: SSSSSDELFEKVKKAYEEARELYENGNPEEARRLLEEILEEAEELGNVAVEWSIRHALRILSSSS

target: il10ra, Q13651; assay: yeast display titration

Binder | apparent Kd
B1 | inactive: no binding seen
B2 | inactive: no binding seen
B3 | inactive: no binding seen
B4 | inactive: no binding seen
B5 | inactive: no binding seen
B6 | inactive: no binding seen
B7 | inactive: no binding seen
B8 | inactive: > 1500 nM
B9 | inactive: no binding seen
B10 | inactive: no binding seen
B11 | inactive: no binding seen
B12 | inactive: no binding seen
B13 | inactive: no binding seen
B14 | inactive: no binding seen
B15 | inactive: no binding seen
B16 | inactive: no binding seen
B17 | inactive: no binding seen
B18 | inactive: no binding seen
B19 | inactive: no binding seen

A different layout for part of the listing above:

| Binder | apparent Kd |
| --- | --- |
| B3 | inactive: no binding seen |
| B13 | inactive: no binding seen |

(cont.)

Binder | apparent Kd
B20 | inactive: no binding seen
B21 | inactive: no binding seen
B22 | inactive: no binding seen
B23 | inactive: no binding seen
B24 | inactive: no binding seen
B25 | inactive: no binding seen
B26 | inactive: no binding seen
B27 | inactive: no binding seen
B28 | inactive: no binding seen
B29 | inactive: no binding seen
B30 | inactive: no binding seen
B31 | inactive: no binding seen
B32 | inactive: no binding seen
B33 | inactive: no binding seen
B34 | inactive: no binding seen
B35 | inactive: no binding seen
B36 | inactive: no binding seen
B37 | inactive: no binding seen

— article PMC10163288
